Measured values taken from the supplement of paper PMC10849652.
Some of the results follow.

Amino acid sequences for entries named in this document (tags omitted). A change or cut given only in a name is not applied to a line headed by its entry.
UniProt A6NDG6: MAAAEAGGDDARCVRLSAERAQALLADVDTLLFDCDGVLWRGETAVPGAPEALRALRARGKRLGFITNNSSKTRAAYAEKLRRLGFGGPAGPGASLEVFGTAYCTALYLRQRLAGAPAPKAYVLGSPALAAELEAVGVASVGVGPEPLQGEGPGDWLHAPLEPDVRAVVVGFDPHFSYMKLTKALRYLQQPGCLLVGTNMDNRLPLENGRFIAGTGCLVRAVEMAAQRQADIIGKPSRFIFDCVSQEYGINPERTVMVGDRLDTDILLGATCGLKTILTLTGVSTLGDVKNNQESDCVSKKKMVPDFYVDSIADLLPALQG
UniProt Q16875: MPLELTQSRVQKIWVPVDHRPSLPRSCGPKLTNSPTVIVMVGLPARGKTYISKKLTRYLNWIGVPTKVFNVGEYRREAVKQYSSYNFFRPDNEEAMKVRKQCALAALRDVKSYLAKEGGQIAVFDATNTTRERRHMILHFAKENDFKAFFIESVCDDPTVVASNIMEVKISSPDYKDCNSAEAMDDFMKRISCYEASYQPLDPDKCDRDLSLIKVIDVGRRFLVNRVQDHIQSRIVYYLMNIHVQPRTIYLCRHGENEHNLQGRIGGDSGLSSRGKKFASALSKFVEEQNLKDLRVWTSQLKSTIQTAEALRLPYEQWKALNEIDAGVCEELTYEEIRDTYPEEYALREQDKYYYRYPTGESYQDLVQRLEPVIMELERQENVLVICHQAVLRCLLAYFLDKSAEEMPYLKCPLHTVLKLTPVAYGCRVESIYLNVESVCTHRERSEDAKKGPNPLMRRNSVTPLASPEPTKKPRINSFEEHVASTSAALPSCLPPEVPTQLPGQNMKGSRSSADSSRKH
UniProt Q99623, whole entry, looked up: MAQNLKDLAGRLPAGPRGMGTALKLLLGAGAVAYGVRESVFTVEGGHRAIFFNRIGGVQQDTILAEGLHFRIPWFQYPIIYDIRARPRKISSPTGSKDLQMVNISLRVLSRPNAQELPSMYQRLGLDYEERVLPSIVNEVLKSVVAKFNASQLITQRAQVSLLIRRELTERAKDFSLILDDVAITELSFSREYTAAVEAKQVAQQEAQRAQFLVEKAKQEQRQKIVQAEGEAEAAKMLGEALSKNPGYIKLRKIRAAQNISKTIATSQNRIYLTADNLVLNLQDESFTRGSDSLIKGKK
PIGBOS1, A0A0B4J2F0, UniProt A0A0B4J2F0, whole entry, looked up: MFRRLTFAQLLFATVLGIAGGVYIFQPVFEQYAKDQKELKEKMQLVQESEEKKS
UniProt Q93100: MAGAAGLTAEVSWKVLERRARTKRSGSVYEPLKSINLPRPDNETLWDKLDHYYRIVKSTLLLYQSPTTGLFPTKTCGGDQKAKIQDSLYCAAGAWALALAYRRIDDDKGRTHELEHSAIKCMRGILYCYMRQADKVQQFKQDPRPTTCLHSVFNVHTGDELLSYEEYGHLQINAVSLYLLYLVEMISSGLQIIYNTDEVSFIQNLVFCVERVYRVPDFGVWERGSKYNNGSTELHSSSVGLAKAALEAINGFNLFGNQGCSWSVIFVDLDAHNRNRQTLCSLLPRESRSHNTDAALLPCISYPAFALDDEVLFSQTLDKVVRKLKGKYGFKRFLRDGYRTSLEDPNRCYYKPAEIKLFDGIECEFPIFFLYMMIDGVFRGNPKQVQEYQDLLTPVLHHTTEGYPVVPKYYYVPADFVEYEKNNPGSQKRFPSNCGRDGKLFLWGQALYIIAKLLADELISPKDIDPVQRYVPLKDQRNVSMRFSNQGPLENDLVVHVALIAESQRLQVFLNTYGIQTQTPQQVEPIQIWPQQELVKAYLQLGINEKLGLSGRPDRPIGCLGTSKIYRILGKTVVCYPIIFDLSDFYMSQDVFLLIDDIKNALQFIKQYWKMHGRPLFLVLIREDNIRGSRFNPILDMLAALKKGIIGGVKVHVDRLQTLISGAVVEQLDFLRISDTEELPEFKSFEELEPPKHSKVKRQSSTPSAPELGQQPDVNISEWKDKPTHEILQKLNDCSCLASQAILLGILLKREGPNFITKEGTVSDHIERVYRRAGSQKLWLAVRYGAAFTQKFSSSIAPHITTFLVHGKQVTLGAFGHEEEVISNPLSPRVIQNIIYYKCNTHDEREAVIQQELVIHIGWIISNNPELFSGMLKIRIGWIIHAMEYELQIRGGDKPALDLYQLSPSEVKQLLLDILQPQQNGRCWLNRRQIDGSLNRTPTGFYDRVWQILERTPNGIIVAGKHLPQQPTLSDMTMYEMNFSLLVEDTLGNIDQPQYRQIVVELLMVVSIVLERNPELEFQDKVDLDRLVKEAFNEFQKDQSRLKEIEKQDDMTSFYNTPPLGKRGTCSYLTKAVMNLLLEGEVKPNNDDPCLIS
UniProt Q9NQP4, whole entry, looked up: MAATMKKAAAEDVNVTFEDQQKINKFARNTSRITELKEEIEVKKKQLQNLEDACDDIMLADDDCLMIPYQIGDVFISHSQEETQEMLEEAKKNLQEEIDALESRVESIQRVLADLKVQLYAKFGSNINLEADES
UniProt Q6PCE3: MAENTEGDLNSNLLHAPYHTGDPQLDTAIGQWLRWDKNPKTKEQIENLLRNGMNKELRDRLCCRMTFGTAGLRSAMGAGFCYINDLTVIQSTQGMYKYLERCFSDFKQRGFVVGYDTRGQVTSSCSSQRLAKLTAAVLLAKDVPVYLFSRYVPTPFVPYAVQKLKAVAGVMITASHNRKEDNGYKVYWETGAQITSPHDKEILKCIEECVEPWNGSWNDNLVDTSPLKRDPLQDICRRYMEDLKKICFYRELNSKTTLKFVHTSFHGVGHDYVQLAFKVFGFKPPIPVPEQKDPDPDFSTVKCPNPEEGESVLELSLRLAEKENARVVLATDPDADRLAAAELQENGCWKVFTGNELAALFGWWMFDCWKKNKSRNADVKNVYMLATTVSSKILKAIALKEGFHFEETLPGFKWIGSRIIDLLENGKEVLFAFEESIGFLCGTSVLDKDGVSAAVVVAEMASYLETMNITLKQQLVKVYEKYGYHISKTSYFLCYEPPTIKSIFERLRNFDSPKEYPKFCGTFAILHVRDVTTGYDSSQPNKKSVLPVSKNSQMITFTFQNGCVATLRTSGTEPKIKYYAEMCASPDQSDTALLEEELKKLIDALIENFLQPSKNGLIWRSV
UniProt Q4KWH8: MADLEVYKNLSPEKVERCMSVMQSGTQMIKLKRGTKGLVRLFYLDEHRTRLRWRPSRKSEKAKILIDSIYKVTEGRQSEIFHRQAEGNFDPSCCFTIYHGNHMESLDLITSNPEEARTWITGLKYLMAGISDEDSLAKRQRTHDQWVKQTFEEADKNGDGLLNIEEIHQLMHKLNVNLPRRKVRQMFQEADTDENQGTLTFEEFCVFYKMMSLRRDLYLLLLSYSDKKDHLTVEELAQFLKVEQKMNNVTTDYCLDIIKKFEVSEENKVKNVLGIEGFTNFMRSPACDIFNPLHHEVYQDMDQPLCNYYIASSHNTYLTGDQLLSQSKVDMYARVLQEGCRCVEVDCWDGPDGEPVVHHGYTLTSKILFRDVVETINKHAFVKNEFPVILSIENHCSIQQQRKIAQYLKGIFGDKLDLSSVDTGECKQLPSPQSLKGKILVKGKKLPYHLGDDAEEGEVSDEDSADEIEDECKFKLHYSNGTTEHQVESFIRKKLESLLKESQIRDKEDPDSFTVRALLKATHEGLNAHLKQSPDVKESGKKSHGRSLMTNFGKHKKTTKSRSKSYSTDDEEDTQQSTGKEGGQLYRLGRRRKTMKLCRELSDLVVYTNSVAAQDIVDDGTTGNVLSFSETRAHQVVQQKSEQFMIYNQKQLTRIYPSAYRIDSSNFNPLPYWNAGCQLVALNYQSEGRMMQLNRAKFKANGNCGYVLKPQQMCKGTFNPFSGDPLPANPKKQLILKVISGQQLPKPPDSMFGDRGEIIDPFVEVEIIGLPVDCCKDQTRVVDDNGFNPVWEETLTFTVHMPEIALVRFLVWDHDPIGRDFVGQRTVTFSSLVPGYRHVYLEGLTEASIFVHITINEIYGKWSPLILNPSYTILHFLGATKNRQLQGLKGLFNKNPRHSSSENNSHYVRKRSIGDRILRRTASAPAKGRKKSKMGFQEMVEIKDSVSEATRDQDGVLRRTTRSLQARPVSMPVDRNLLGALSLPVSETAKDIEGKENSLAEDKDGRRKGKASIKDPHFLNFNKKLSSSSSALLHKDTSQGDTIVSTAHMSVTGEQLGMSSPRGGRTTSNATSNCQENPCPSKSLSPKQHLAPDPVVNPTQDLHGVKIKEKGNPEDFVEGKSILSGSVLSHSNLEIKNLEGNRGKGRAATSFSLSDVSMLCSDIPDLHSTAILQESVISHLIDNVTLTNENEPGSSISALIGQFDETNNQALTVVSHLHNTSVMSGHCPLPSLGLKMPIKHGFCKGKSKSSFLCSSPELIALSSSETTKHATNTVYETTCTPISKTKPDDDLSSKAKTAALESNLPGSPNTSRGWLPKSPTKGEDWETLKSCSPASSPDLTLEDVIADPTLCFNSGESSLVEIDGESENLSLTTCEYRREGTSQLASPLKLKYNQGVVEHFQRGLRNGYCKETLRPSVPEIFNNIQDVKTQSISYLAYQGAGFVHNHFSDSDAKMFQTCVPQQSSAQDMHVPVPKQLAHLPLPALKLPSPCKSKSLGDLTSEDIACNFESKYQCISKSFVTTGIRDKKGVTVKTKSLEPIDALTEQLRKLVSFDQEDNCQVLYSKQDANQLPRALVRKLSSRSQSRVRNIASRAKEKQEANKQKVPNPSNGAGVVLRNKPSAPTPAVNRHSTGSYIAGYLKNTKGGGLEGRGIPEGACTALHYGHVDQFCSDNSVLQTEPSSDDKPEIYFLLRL
UniProt Q01813: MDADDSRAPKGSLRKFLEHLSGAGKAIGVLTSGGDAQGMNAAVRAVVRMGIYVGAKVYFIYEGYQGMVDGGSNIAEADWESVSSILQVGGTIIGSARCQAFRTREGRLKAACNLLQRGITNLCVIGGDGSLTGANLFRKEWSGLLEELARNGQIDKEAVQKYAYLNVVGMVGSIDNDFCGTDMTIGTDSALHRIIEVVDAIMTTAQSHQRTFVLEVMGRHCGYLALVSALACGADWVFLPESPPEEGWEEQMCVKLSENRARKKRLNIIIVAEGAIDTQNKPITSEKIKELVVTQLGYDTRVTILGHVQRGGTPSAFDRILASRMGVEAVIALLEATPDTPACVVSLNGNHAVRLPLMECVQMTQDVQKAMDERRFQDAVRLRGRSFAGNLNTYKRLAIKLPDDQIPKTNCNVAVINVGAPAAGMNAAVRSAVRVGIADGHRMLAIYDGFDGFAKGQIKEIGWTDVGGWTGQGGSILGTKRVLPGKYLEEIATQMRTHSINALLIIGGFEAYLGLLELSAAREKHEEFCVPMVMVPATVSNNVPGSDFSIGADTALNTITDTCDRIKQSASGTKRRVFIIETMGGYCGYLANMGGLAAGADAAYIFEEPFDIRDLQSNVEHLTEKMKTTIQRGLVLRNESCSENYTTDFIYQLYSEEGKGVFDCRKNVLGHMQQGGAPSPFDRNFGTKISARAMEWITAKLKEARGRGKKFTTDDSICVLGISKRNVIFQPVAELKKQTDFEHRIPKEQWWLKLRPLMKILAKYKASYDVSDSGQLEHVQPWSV
UniProt Q9NRX4: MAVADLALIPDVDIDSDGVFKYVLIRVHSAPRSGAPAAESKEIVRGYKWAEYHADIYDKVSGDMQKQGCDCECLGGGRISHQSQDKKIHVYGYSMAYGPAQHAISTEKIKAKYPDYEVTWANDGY
UniProt Q9UHV9, whole entry, looked up: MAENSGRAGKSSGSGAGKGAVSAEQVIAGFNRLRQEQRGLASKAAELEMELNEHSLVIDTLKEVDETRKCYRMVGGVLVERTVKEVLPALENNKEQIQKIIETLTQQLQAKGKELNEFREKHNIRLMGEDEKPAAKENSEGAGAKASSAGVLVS
UniProt Q32NB8: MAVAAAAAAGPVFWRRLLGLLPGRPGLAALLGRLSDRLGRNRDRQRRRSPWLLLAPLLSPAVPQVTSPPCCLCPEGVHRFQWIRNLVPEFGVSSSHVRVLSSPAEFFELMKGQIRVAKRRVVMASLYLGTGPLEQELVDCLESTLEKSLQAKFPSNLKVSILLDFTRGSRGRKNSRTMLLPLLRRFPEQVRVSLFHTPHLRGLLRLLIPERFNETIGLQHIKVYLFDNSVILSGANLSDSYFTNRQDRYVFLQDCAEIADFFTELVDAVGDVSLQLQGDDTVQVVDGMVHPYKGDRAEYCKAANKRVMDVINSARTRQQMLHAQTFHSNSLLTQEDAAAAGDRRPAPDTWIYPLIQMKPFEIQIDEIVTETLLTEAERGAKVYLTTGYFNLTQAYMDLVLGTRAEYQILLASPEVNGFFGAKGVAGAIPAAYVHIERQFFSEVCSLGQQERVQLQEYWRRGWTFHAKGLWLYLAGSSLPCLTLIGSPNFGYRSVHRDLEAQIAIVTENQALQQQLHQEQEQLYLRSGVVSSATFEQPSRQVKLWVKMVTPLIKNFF
UniProt Q9GZP4: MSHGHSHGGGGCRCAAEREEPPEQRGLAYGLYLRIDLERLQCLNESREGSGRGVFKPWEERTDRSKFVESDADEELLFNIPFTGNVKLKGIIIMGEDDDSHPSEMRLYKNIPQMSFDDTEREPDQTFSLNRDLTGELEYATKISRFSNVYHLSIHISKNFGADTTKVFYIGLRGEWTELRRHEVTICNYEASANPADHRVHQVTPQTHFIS

Compound: COC(=O)[C@H](CCSC)NC(=O)C1=C(C=C(C=C1)NC[C@H](CS)N)C2=CC=CC=C2
Test: log2 fold change, soluble protein after heating vs DMSO (PISA); higher = thermal stabilisation; K562 cells, 10 uM, 30 min; active = over 0.2 and 3.5 SD of the protein, either way, in both replicates (recomputed)
Method in brief: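 K562 cells at 2×10^6 cells/mL were given 10 μM compound for 30 min. Aliquots then went through 3 min of heating across 48°C-58°C, were pooled, and were extracted in PBS with 0.5% NP-40 at 4°C, and the supernatant after 21,000xg for 90 min was quantified by TMTpro 16plex LC-MS/MS with channel sums equalised. Thermal stability relative to control samples, from duplicates, is given as log2 fold change.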

log2 fold change, inactive:
PIGW (UniProt Q7Z7B1) 0.086
PGP (UniProt A6NDG6) 0.001
PFKM isoform 3 (UniProt P08237) -0.006
PFKFB3 isoform 4 (UniProt Q16875) -0.024
PHB2 (UniProt Q99623) 0.028
PGM2 (UniProt Q96G03) 0.015
PIGBOS1, A0A0B4J2F0 -0.08
PHACTR2 isoform 4 (UniProt O75167) -0.166
PKLR (UniProt P30613) 0.023
PHKB isoform 3 (UniProt Q93100) -0.028
PFDN4 (UniProt Q9NQP4) -0.003
PGM2L1 (UniProt Q6PCE3) 0.043
PHF19 isoform 2 (UniProt Q5T6S3) -0.09
PGAM1 (UniProt P18669) 0.018
PLCH1 (UniProt Q4KWH8) 0
PFKP (UniProt Q01813) -0.023
PHPT1 (UniProt Q9NRX4) 0.041
PHB (UniProt P35232) -0.006
PFKFB4 (UniProt Q16877) 0.006
PIK3R2 (UniProt O00459) 0.012
PFKL isoform 2 (UniProt P17858) -0.016
PFDN2 (UniProt Q9UHV9) 0.003
PHF6 (UniProt Q8IWS0) -0.023
PHF3 (UniProt Q92576) 0.038
PHACTR4 isoform 2 (UniProt Q8IZ21) 0.071
PEX6 (UniProt Q13608) -0.021
PLAA (UniProt Q9Y263) 0
PGS1 (UniProt Q32NB8) -0.014
PI4KA (UniProt P42356) -0.005
PITHD1 (UniProt Q9GZP4) 0.04
PLEC (UniProt Q15149) -0.026

Two records picked at random from the list so far, as already listed:
log2 fold change, inactive:
PKLR (UniProt P30613) 0.023
PGM2L1 (UniProt Q6PCE3) 0.043
